This test concerns L1210 leukemia ip in BDF1 mice, survival T/C. Description: NCI In Vivo Anticancer Drug Screen. Data for tumor model L1210 Leukemia (intraperitoneal) in B6D2F1 (BDF1) mice. As to conditions: higher T/C = longer survival.

The list shows only some results of the screen, not a fair sample: it gathers tests that were run many times, whatever their T/C, doses with no T/C, and many T/C values between a quarter and a half above the control. Further doses and runs are listed elsewhere. T/C: endpoint of the treated group in % of that of the vehicle group. Some entries give survivors of the animals treated and no T/C: the source holds a T/C of zero for them, seemingly a mark for toxic or unscored doses. Some doses without a T/C left all or most animals alive at the check, yet need not have been tolerated: survival well below the control is almost never listed, so the zero probably covers shortened survival too. Counts of survivors are from the toxicity check (mostly the fifth day) where no day follows; animals may have died later. Schedules are NCI's codes, read here as Q, the interval in days (D) or hours (H), X, the number of doses. Some structures stand for samples that the source files as different forms (salt, stereo form or complex); doses refer to the form tested. For survival time, the PubChem record calls one and a half times the control and up active, and a quarter to a half above the control has no call in these data; cut-offs in other NCI protocols can differ. Some T/C values are followed by the survivors on the day toxicity was checked, most often the fifth; where none is given, no animal had died by that day. Some doses were run more than once; the values are given in rising order. Brackets with × stand for listed records that agree.

On to `COc1cc2c[n+](C)c3c4cc5c(cc4ccc3c2cc1OC)OCO5`, for which the survivor count is on record as 10 of 10 (T/C endpoint: mean survival time, dose: 1.0 mg/kg/injection, schedule: Q01DX009 (ip), vehicle: saline); 10 of 10 (T/C endpoint: mean survival time, dose: 2.0 mg/kg/injection, schedule: Q01DX009 (ip), vehicle: saline); 10 of 10 (T/C endpoint: mean survival time, dose: 4.0 mg/kg/injection, schedule: Q01DX009 (ip), vehicle: saline); 10 of 10 (T/C endpoint: mean survival time, dose: 8.0 mg/kg/injection, schedule: Q01DX009 (ip), vehicle: saline); 10 of 10 (T/C endpoint: median survival time, dose: 1.0 mg/kg/injection, schedule: Q03HX016 (ip), vehicle: saline); 4 of 10 (T/C endpoint: median survival time, dose: 16.0 mg/kg/injection, schedule: Q03HX016 (ip), vehicle: saline). For the same compound, the survivor count is listed as 8 of 10 (T/C endpoint: median survival time, dose: 16.0 mg/kg/injection, schedule: Q03HX024 (ip), vehicle: saline); 1 of 10 (T/C endpoint: median survival time, dose: 32.0 mg/kg/injection, schedule: Q03HX008 (ip), vehicle: saline); 4 of 10 (T/C endpoint: median survival time, dose: 32.0 mg/kg/injection, schedule: Q03HX024 (ip), vehicle: saline); 0 of 10 (T/C endpoint: median survival time, dose: 64.0 mg/kg/injection, schedule: Q03HX008 (ip), vehicle: saline); 10 of 10 (T/C endpoint: median survival time, dose: 128.0 mg/kg/injection, schedule: Q01DX009 (ip), vehicle: saline); 10 of 10 (T/C endpoint: median survival time, dose: 256.0 mg/kg/injection, schedule: Q04DX003 (ip), vehicle: saline). Also, the survivor count (T/C endpoint: median survival time, dose: 512.0 mg/kg/injection, schedule: Q01DX001 (ip), vehicle: saline) is listed as 4 of 10. Besides, the T/C is 134 % of control (T/C endpoint: mean survival time, dose: 1.0 mg/kg/injection, schedule: Q01DX009 (ip), vehicle: water); 102, 110, 119 % of control (T/C endpoint: mean survival time, dose: 2.0 mg/kg/injection, schedule: Q01DX009 (ip), vehicle: saline, evaluated on day 30); 133 % of control (T/C endpoint: mean survival time, dose: 2.0 mg/kg/injection, schedule: Q01DX009 (ip), vehicle: saline, evaluated on day 60); 130 % of control (T/C endpoint: mean survival time, dose: 2.0 mg/kg/injection, schedule: Q01DX009 (ip), vehicle: water); 111, 112 [5 of 6 alive], 120, 122 % of control (T/C endpoint: mean survival time, dose: 4.0 mg/kg/injection, schedule: Q01DX009 (ip), vehicle: saline, evaluated on day 30); 141 % of control (T/C endpoint: mean survival time, dose: 4.0 mg/kg/injection, schedule: Q01DX009 (ip), vehicle: saline, evaluated on day 60). Moreover, the T/C is, setting by setting: (T/C endpoint: mean survival time, dose: 4.0 mg/kg/injection, schedule: Q01DX009 (ip), vehicle: water) 131 % of control; (T/C endpoint: mean survival time, dose: 5.0 mg/kg/injection, schedule: Q01DX009 (ip), vehicle: saline) 126 % of control; (T/C endpoint: mean survival time, dose: 8.0 mg/kg/injection, schedule: Q01DX009 (ip), vehicle: saline, evaluated on day 30) 117 (2×), 118, 127 % of control; (T/C endpoint: mean survival time, dose: 8.0 mg/kg/injection, schedule: Q01DX009 (ip), vehicle: saline, evaluated on day 60) 126 % of control; (T/C endpoint: mean survival time, dose: 8.0 mg/kg/injection, schedule: Q01DX009 (ip), vehicle: water) 134 % of control; (T/C endpoint: mean survival time, dose: 10.0 mg/kg/injection, schedule: Q04DX003 (ip), vehicle: saline) 132 % of control. In addition, the T/C is 109, 114, 119 % of control (2×) (T/C endpoint: mean survival time, dose: 16.0 mg/kg/injection, schedule: Q01DX009 (ip), vehicle: saline); 141 % of control (T/C endpoint: mean survival time, dose: 20.0 mg/kg/injection, schedule: Q01DX009 (ip), vehicle: saline); 131 % of control [5 of 6 alive] (T/C endpoint: mean survival time, dose: 20.0 mg/kg/injection, schedule: Q04DX003 (ip), vehicle: saline); 121, 125, 127, 139 % of control (T/C endpoint: mean survival time, dose: 32.0 mg/kg/injection, schedule: Q01DX009 (ip), vehicle: saline); 145 % of control (T/C endpoint: mean survival time, dose: 40.0 mg/kg/injection, schedule: Q04DX003 (ip), vehicle: saline); 127 % of control [5 of 6 alive] (T/C endpoint: mean survival time, dose: 64.0 mg/kg/injection, schedule: Q01DX009 (ip), vehicle: saline). Further, the T/C by setting is: (T/C endpoint: median survival time, dose: 2.0 mg/kg/injection, schedule: Q03HX024 (ip), vehicle: saline) 128 % of control; (T/C endpoint: median survival time, dose: 4.0 mg/kg/injection, schedule: Q03HX024 (ip), vehicle: saline) 130 % of control; (T/C endpoint: median survival time, dose: 8.0 mg/kg/injection, schedule: Q01DX009 (ip), vehicle: saline) 128 % of control; (T/C endpoint: median survival time, dose: 8.0 mg/kg/injection, schedule: Q03HX008 (ip), vehicle: saline) 129 % of control [9 of 10 alive]; (T/C endpoint: median survival time, dose: 8.0 mg/kg/injection, schedule: Q03HX016 (ip), vehicle: saline) 133 % of control; (T/C endpoint: median survival time, dose: 8.0 mg/kg/injection, schedule: Q03HX024 (ip), vehicle: saline) 140 % of control. Further, the T/C reads like this: (T/C endpoint: median survival time, dose: 16.0 mg/kg/injection, schedule: Q01DX009 (ip), vehicle: saline) 129 % of control; (T/C endpoint: median survival time, dose: 32.0 mg/kg/injection, schedule: Q01DX009 (ip), vehicle: saline) 149 % of control; (T/C endpoint: median survival time, dose: 32.0 mg/kg/injection, schedule: Q08DX002 (ip), vehicle: saline) 128 % of control; (T/C endpoint: median survival time, dose: 64.0 mg/kg/injection, schedule: Q08DX002 (ip), vehicle: saline) 130 % of control; (T/C endpoint: median survival time, dose: 256.0 mg/kg/injection, schedule: Q01DX001 (ip), vehicle: saline) 130 % of control.
Turning to `N#CC1=C(N)CCC(C#N)(c2ccccc2)C1` (configuration not stated), the survivor count (T/C endpoint: mean survival time, dose: 400.0 mg/kg/injection, schedule: Q01DX009 (ip), vehicle: saline with Tween-80) is listed as 1 of 6.
Turning to `O=C(Oc1ccc(S(=O)(=O)F)cc1F)c1ccccc1Cl`, the survivor count (T/C endpoint: mean survival time, dose: 400.0 mg/kg/injection, schedule: Q04DX002 (ip), vehicle: Klucel (hydroxypropylcellulose) (HPC)) is given as 3 of 3.
In the case of `C1CCC2CCCCC2C1` (configuration not stated), the survivor count (T/C endpoint: mean survival time, dose: 25.0 mg/kg/injection, schedule: Q04DX002 (ip), vehicle: saline) is recorded as 3 of 3.
For `S=C(Nc1ccc(Cl)c(Cl)c1)SCc1ccc2c(c1)OCO2`, the T/C (T/C endpoint: mean survival time, dose: 75.0 mg/kg/injection, schedule: Q01DX009 (ip), vehicle: saline) was 130 % of control.
For `CC(=O)N1C(=O)C(Cl)C(Cl)C(=O)N1C(C)=O` (configuration not stated), under “T/C endpoint: mean survival time, dose: 400.0 mg/kg/injection, schedule: Q04DX003 (ip), vehicle: Klucel (hydroxypropylcellulose) (HPC)”, the survivor count was 3 of 6.
As for `O=S(=O)(Sc1ccc(Cl)cc1)c1ccc(Cl)cc1`, the survivor count (T/C endpoint: mean survival time, dose: 100.0 mg/kg/injection, schedule: Q04DX002 (ip), vehicle: gum acacia) is 3 of 3.
Take `CCN(CC)CCOc1ccccc1Br`: the survivor count was 3 of 6 (T/C endpoint: mean survival time, dose: 100.0 mg/kg/injection, schedule: Q01DX009 (ip), vehicle: saline); 2 of 6 (T/C endpoint: mean survival time, dose: 200.0 mg/kg/injection, schedule: Q04DX003 (ip), vehicle: saline); 0 of 6 (T/C endpoint: mean survival time, dose: 400.0 mg/kg/injection, schedule: Q04DX003 (ip), vehicle: saline).
On to `CCCCCCCCC[As](=O)(O)O`, for which the survivor count is listed as 0 of 4 (T/C endpoint: mean survival time, dose: 12.5 mg/kg/injection, schedule: Q01DX001 (ip), vehicle: carboxymethylcellulose (CMC)); 0 of 4 (T/C endpoint: mean survival time, dose: 25.0 mg/kg/injection, schedule: Q01DX001 (ip), vehicle: carboxymethylcellulose (CMC)); 0 of 4 (T/C endpoint: mean survival time, dose: 50.0 mg/kg/injection, schedule: Q01DX001 (ip), vehicle: carboxymethylcellulose (CMC)).
In the case of `CCOC(=O)c1cc(Cl)c(O)c(Cl)c1`, the survivor count is given as 2 of 6 (T/C endpoint: mean survival time, dose: 200.0 mg/kg/injection, schedule: Q01DX009 (ip), vehicle: gum acacia) and 0 of 6 (T/C endpoint: mean survival time, dose: 400.0 mg/kg/injection, schedule: Q01DX009 (ip), vehicle: gum acacia).
Turning to `COC1=C2CCCCC2=[N+]2CCc3ccccc3C2C1` (configuration not stated), the survivor count runs as follows: (T/C endpoint: mean survival time, dose: 200.0 mg/kg/injection, schedule: Q01DX001 (ip), vehicle: Klucel (hydroxypropylcellulose) (HPC)) 3 of 6; (T/C endpoint: mean survival time, dose: 400.0 mg/kg/injection, schedule: Q01DX001 (ip), vehicle: Klucel (hydroxypropylcellulose) (HPC)) 0 of 6.
Take `CCOC(Cl)CCl` (configuration not stated): the survivor count (T/C endpoint: mean survival time, dose: 100.0 mg/kg/injection, schedule: Q01DX001 (ip), vehicle: saline with Tween-80) is given as 0 of 6; the survivor count (T/C endpoint: mean survival time, dose: 200.0 mg/kg/injection, schedule: Q01DX001 (ip), vehicle: saline with Tween-80) is recorded as 0 of 6; the survivor count (T/C endpoint: mean survival time, dose: 400.0 mg/kg/injection, schedule: Q01DX001 (ip), vehicle: saline with Tween-80) is given as 0 of 6.
Take `CC(C)(O)C#Cc1ccccc1`: under “T/C endpoint: mean survival time, dose: 400.0 mg/kg/injection, schedule: Q01DX005 (ip), vehicle: Klucel (hydroxypropylcellulose) (HPC)”, the survivor count is reported as 0 of 3.

For the origin of these results see PubChem BioAssay AID248 (DTP/NCI, 2004).
